Record: PubChem BioAssay AID1259308 (NCATS, 2017)

Test: 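Candidate targets for better recombinant protein yield in mammalian cells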 (primary screen)
Cell system: human HEK293 embryonic kidney cells stably expressing firefly luciferase (HEK-CMV-Luc2-Hygro)
Reagents: single siRNA against human genes, 0.8 pmol siRNA per well
Timing: 72 h
Read-out: 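Luciferase light (ONE-Glo) measured on one replicate plate set and viability (CellTiter-Glo) on the other, scaled to a negative control siRNA, with robust z-scores and luciferase per cell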
Direction: total luciferase, z-score and total luciferase, % of control: higher = more reporter protein produced; luciferase per cell, z-score: higher = more reporter output per viable cell
Hit rule: 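Active when the median/MAD z-score for overall luciferase is greater than 3; a gene was taken forward for validation with new siRNAs if at least two of its three siRNAs passed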
Calls: active = raised luciferase; inactive = no rise
Shown is one part, drawn at random, of about 59,000 reagents. About 1,510 of all reagents (2.6%) count as active. 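Calls use total luciferase alone and ignore viability, so some active siRNAs may act by altering cell number.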 Entries without a mark were called inactive. Not all columns of the deposit are shown.

no.	gene symbol	PubChem SID	total luciferase, z-score	total luciferase, % of control	luciferase per cell, z-score
1	SLC1A1	SID160716781	-0.534	71.3	-0.0934
2	SLC1A1	SID160716782	0.671	95.2	0.592
3	SLC1A1	SID160716783	-0.386	74.2	-0.684
4	LGI4	SID160760023	-0.326	75.4	-0.0867
5	LGI4	SID160760024	-0.909	63.8	-0.91
6	LGI4	SID160760025	-0.209	77.7	-1.01
7	EDARADD	SID160756708	-1.6	50	-2.03
8	EDARADD	SID160756709	-1.06	60.8	-0.61
9	EDARADD	SID160756710	-0.108	79.7	0.712
10	HNRNPUL1	SID160729941	-0.274	76.4	-1.02
11	HNRNPUL1	SID160729942	0.627	94.4	0.269
12	HNRNPUL1	SID160729943	-1.4	53.9	-0.503
13	FOXI2	SID160766868	-0.739	67.2	-1.16
14	FOXI2	SID160766870	0.96	101	0.395
15	FOXI2	SID160766871	1.54	113	0.588
16	KCNJ9	SID160776185	-0.286	76.2	0.271
17	KCNJ9	SID160776186	-0.22	77.5	-0.132
18	KCNJ9	SID160776187	0.977	101	-0.132
19	OTOP1	SID160757224	-0.835	65.3	-0.579
20	OTOP1	SID160757225	0.578	93.4	0.368
21	OTOP1	SID160757226	0.237	86.6	-0.402
22	TADA3	SID160728514	-1.03	61.5	-0.509
23	TADA3	SID160728515	-0.789	66.2	-1.5
24	TADA3	SID160728517	-1.4	54.1	-0.886
25	CACNA2D4	SID160754515	-0.99	62.2	-1.25
26	CACNA2D4	SID160754516	-0.77	66.6	0.334
27	CACNA2D4	SID160754517	-0.256	76.8	-0.292
28	PRRT1	SID160750642	0.252	86.9	-0.129
29	PRRT1	SID160750643	1.08	103	1.23
30	PRRT1	SID160750644	-0.325	75.4	-0.717
31	PACS2	SID160735807	1.35	109	1.64
32	PACS2	SID160735809	2.77	137	1.47
33	PACS2	SID160735810	0.949	101	0.811
34	ALG12	SID160748620	1.12	104	0.812
35	ALG12	SID160748621	-1.48	52.4	-1.79
36	ALG12	SID160748622	-0.617	69.6	0.476

Reformatted: entries from further up.
{"gene symbol":"PRRT1","PubChem SID":"SID160750642","total luciferase, z-score":0.252,"total luciferase, % of control":86.9,"luciferase per cell, z-score":-0.129}
{"gene symbol":"PRRT1","PubChem SID":"SID160750643","total luciferase, z-score":1.08,"total luciferase, % of control":103,"luciferase per cell, z-score":1.23}
{"gene symbol":"PRRT1","PubChem SID":"SID160750644","total luciferase, z-score":-0.325,"total luciferase, % of control":75.4,"luciferase per cell, z-score":-0.717}
{"gene symbol":"PACS2","PubChem SID":"SID160735807","total luciferase, z-score":1.35,"total luciferase, % of control":109,"luciferase per cell, z-score":1.64}
{"gene symbol":"PACS2","PubChem SID":"SID160735809","total luciferase, z-score":2.77,"total luciferase, % of control":137,"luciferase per cell, z-score":1.47}
{"gene symbol":"PACS2","PubChem SID":"SID160735810","total luciferase, z-score":0.949,"total luciferase, % of control":101,"luciferase per cell, z-score":0.811}
{"gene symbol":"ALG12","PubChem SID":"SID160748620","total luciferase, z-score":1.12,"total luciferase, % of control":104,"luciferase per cell, z-score":0.812}
{"gene symbol":"ALG12","PubChem SID":"SID160748621","total luciferase, z-score":-1.48,"total luciferase, % of control":52.4,"luciferase per cell, z-score":-1.79}

Continued:
no.	gene symbol	PubChem SID	total luciferase, z-score	total luciferase, % of control	luciferase per cell, z-score
37	ANAPC10	SID160728319	-1.13	59.4	-1.54
38	ANAPC10	SID160728320	0.0176	82.2	0.817
39	ANAPC10	SID160728321	-1.36	54.9	-1.26
40	LRP10	SID160730912	-0.21	77.7	-0.518
41	LRP10	SID160737469	-0.908	63.8	-0.406
42	LRP10	SID160737471	1.19	105	0.226
43	PCF11	SID160741042	-3.38	14.6	-5.17
44	PCF11	SID160741043	-2.37	34.7	-2.71
45	PCF11	SID160741044	-3.17	18.9	-4.1
46	PPP1R15B	SID160752937	-2.87	24.8	-3.41
47	PPP1R15B	SID160752938	-2.91	23.9	-3.08
48	PPP1R15B	SID160752940	-2.15	39.1	-0.828
49	NOAZFP	SID160738702	0.262	87.1	-0.227
50	NOAZFP	SID160738703	1.3	108	0.506
51	NOAZFP	SID160738704	-0.776	66.4	-0.0222
52	BHLHA15	SID160724896	0.133	84.5	-0.223
53	BHLHA15	SID160724898	0.432	90.5	-0.538
54	BHLHA15	SID160730699	0.321	88.3	0.343
55	HYPK	SID160736934	-0.366	74.6	-0.324
56	HYPK	SID160736935	-1.58	50.4	-1.77
57	HYPK	SID160736936	2.01	122	1.3
